Laboratory results: PubChem BioAssay AID743454 (Peter MacCallum Cancer Centre, 2014)
The deposit covers about 18,000 reagents; below is a random part of them. 450 of all reagents (2.5%) were called active. 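Single biological run; no consistent viability z cut-off exists, so the class columns, not z-scores, define the calls.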 A number with no mark means an inactive call.

- Purpose: 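Search for knock-downs that restore vorinostat killing in resistant colon cancer cells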 (primary screen)
- Cell system: human HCT116-VR colon cancer cells, selected for vorinostat resistance
- Reagents: siRNA pool against human genes, 40 nM siRNA pool
- Duration: vorinostat for 24 h, read-out about 72 h after transfection
- Conditions: vorinostat at 2.5 µM final
- Measured: 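Two measures, CellTiter-Fluor viability and luminescent caspase 3/7 activity, each as fold change against same-plate mock wells, mean of duplicates, then screen-wide robust z-score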
- Reading the numbers: viability robust z-score: higher = more viable cells than screen typical; caspase robust z-score: higher = more caspase 3/7 activity than screen typical
- Hit rule: 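Hits are knock-downs in viability class RV1/RV2 or caspase class CA1/CA2, excluding ones that killed cells in the no-drug cell-count arm; hits then retested with single siRNAs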

ZSCAN4 (zinc finger and SCAN domain containing 4) — viability hit class = no change; caspase hit class = no change; viability robust z-score = 0.35; caspase robust z-score = -0.79
GOT1L1 (glutamic-oxaloacetic transaminase 1 like 1) — viability hit class = no change; caspase hit class = no change; viability robust z-score = 0.62; caspase robust z-score = -0.38
ALLC (allantoicase) — viability hit class = no change; caspase hit class = no change; viability robust z-score = 0.62; caspase robust z-score = -0.14
BSDC1 (BSD domain containing 1) — viability hit class = no change; caspase hit class = no change; viability robust z-score = -0.09; caspase robust z-score = -0.57
GDA (guanine deaminase) — viability hit class = no change; caspase hit class = no change; viability robust z-score = 0.09; caspase robust z-score = -0.38
RANBP3L (RAN binding protein 3 like) — viability hit class = no change; caspase hit class = no change; viability robust z-score = 0.06; caspase robust z-score = -0.4
B3GAT2 (beta-1,3-glucuronyltransferase 2) — viability hit class = no change; caspase hit class = no change; viability robust z-score = -0.28; caspase robust z-score = -0.36
VCY (variable charge Y-linked) — viability hit class = no change; caspase hit class = no change; viability robust z-score = -0.12; caspase robust z-score = 0.01
ATP5MC1 (ATP synthase membrane subunit c locus 1) — viability hit class = no change; caspase hit class = no change; viability robust z-score = 0.84; caspase robust z-score = -0.2
ZNF471 (zinc finger protein 471) — viability hit class = no change; caspase hit class = no change; viability robust z-score = 1.78; caspase robust z-score = -0.32
RAVER2 (ribonucleoprotein, PTB binding 2) — viability hit class = no change; caspase hit class = no change; viability robust z-score = 0.44; caspase robust z-score = -0.24
SLC6A2 — viability hit class = no change; caspase hit class = no change; viability robust z-score = -1.15; caspase robust z-score = 4.97
RALGAPB (Ral GTPase activating protein non-catalytic subunit beta) — viability hit class = no change; caspase hit class = no change; viability robust z-score = 1.68; caspase robust z-score = -0.11
TRIM69 (tripartite motif containing 69) — viability hit class = no change; caspase hit class = no change; viability robust z-score = -2.29; caspase robust z-score = 4.42
STK31 (serine/threonine kinase 31) — viability hit class = no change; caspase hit class = no change; viability robust z-score = 1.75; caspase robust z-score = 0.76
PNKP (polynucleotide kinase 3'-phosphatase) — viability hit class = RV2 (reduced viability) (active); caspase hit class = no change; viability robust z-score = -3.52; caspase robust z-score = 3.63
TARS3 (threonyl-tRNA synthetase 3) — viability hit class = no change; caspase hit class = no change; viability robust z-score = 1.73; caspase robust z-score = -0.34
NAPG (NSF attachment protein gamma) — viability hit class = no change; caspase hit class = no change; viability robust z-score = -0.47; caspase robust z-score = 0.82
PHTF1 (putative homeodomain transcription factor 1) — viability hit class = no change; caspase hit class = no change; viability robust z-score = -0.26; caspase robust z-score = -0.54
P2RX3 (purinergic receptor P2X 3) — viability hit class = no change; caspase hit class = no change; viability robust z-score = 0.76; caspase robust z-score = -0.04
MYEOV (myeloma overexpressed) — viability hit class = no change; caspase hit class = no change; viability robust z-score = -1.05; caspase robust z-score = -0.46

Part of the list above, set out differently.
gene,viability hit class,caspase hit class,viability robust z-score,caspase robust z-score
VCY (variable charge Y-linked),no change,no change,-0.12,0.01
ATP5MC1 (ATP synthase membrane subunit c locus 1),no change,no change,0.84,-0.2
